At least one compound was matched to its structure with a doubt left.
Experiment: Particle size of compounds milled with PLURONIC F127 as mucus penetrating particles (dynamic light scattering)
Type: physicochemical
Conditions: formulated as MPP, milled with PLURONIC F127, DPBS buffered

SMILES: COc1cc2ncnc(Oc3ccc(NC(=O)Nc4ccc(CN5CCN(C)CC5)cc4)c(Cl)c3)c2cc1OC [Compound 55]
- Particle Size: 190 nm
